# Test results taken from PubChem BioAssay AID2551 (National Center for Advancing Translational Sciences (NCATS), 2010).
# The chains behind the UniProt entries cited, without tags or fusion partners. Where a name states a change or a piece, a line headed by the entry shows the natural chain unless it says otherwise.
# UniProt P51450: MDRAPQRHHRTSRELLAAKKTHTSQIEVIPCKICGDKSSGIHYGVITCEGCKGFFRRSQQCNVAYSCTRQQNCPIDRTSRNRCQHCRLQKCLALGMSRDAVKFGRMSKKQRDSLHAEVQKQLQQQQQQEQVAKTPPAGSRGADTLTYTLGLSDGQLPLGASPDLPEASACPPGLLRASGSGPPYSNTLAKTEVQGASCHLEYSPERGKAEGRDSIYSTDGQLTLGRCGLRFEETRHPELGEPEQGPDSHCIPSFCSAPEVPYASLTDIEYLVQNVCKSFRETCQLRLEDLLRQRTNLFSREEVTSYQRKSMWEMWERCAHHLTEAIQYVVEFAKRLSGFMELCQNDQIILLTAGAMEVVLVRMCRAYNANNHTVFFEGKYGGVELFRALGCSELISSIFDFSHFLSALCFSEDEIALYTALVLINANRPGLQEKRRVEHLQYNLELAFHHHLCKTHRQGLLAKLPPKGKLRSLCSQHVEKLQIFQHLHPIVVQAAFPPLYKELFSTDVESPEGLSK
# The whole screen tested about 310,000 compounds, of which about 17,000 (5.5%) were called active. The shares of active, inactive and inconclusive entries below differ from those in the screen. The call rests on the fitted dose curve; in most records, active means well fitted inhibition curve with a large enough effect; inconclusive means small, poorly fitted or top-dose-only effect, or effect the other way; inactive means no such curve, though single readings can be large or run the other way. Where the call is inconclusive, the potency comes from a doubtful curve fit.
# Molecular target: Nuclear receptor ROR-gamma (Mus musculus) (UniProt P51450)
# Assay: qHTS for inhibitors of ROR gamma transcriptional activity; further: nearly all actives have a fitted effect of over 60% in size
# Conditions: Drosophila S2 Gal4-RORgamma UAS-luciferase reporter, 20 h; series mostly up to 53.6 µM
# Procedure, shortened: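 Luminescence from a UAS-regulated Photinus luciferase reporter in stably transfected Drosophila Schneider cells is measured; decreased signal marks ROR gamma inhibition. Fusion expression is induced by 700 uM copper sulfate for 20 hr.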
# Potency means the concentration at half of the fitted maximal effect.
row,SMILES,Potency
1,COc1ccc(NC(=O)C2CC(c3c(F)cccc3Cl)=NO2)cc1OC (stereo not drawn),"inconclusive: 11.2 µM [activator, partial curve]"
2,COc1ccc(-c2nc(CSCC(=O)NC3CCCc4ccccc43)c(C)o2)cc1 (stereo not drawn),"inconclusive: 12.6 µM [inhibitor, single point]"
3,CC(C)N(CCn1c(=S)[nH]c2ccccc2c1=O)C(C)C,"inconclusive: 35.5 µM [inhibitor, single point]"
4,CNC(=S)N/N=C/c1ccc(N(C)C)cc1,active: 1.58 µM
5,CC(=O)c1cnc(Nc2ccccc2)s1,"inconclusive: 7.94 µM [activator, partial curve, poor fit]"
6,CC(C)[C@H]1COC(NC2=N[C@@H](C(C)C)CO2)=N1,"inconclusive: 1 µM [inhibitor, partial curve]"
7,Cc1ccccc1Cn1cnc2c(NS(C)(=O)=O)c(C)c(C)cc21,"inconclusive: 35.5 µM [activator, single point]"
8,O=S(c1cc(Cl)cc(Cl)c1O)c1cc(Cl)cc(Cl)c1O,inactive
9,Cc1cc(O)c(N)c(C)c1Cl,"inconclusive: 22.4 µM [inhibitor, single point]"
10,COc1cccc(-c2cc(C(=O)Nn3cnnc3)c3ccccc3n2)c1,"inconclusive: 17.8 µM [inhibitor, partial curve, poor fit]"
11,CSc1cccc(NC(=O)c2nnn(Cc3ccccc3)c2N)c1,"inconclusive: 5.62 µM [activator, full curve]"
12,O=C(CSc1cccc(C(F)(F)F)c1)Nc1cc(S(=O)(=O)N2CCCC2)ccc1Cl,"inconclusive: 31.6 µM [activator, single point]"
13,CCc1nnc(NC(=O)CSc2nnc(-c3ccco3)n2CCOC)s1,"inconclusive: 7.94 µM [activator, partial curve, poor fit]"
14,O=C(Nc1nccs1)c1ccc(S(=O)(=O)NCc2cccs2)cc1,"inconclusive: 28.2 µM [inhibitor, single point]"
15,C/C(Cn1nc([N+](=O)[O-])cc1C)=N\NC(=O)c1ccc(O)cc1O,active: 1.58 µM
16,C=CCCC1(C)C(=O)N(c2ccccc2)c2ccccc21 (stereo not drawn),inactive
17,Cn1c(=N)n(CC(=O)c2ccc(F)cc2)c2ccccc21,active: 8.91 µM
18,Cc1nc(NCCc2ccccc2)c2nnn(Cc3ccccc3Cl)c2n1,"inconclusive: 35.5 µM [inhibitor, single point]"
19,Cc1ccc(S(=O)(=O)N2CCC(C(=O)Nc3ccccc3N3CCCCC3)CC2)cc1,inactive
20,CC[C@H](C(=O)[C@H](C)[C@H](O)[C@H](C)CCc1ccc(C)c(O)c1C(=O)O)[C@H]1O[C@](CC)([C@@H]2CC[C@@](O)(CC)[C@H](C)O2)C[C@H]1C,"inconclusive: 15.8 µM [inhibitor, single point]"
21,O=C(Oc1ccccc1)c1ccc2c(c1)C(=O)N(Cc1ccncc1)C2=O,"inconclusive: 10 µM [activator, partial curve]"
22,COC(=O)[C@@]1(Cc2ccc(F)cc2)[C@H]2c3cc(C(=O)N(C)C)n(Cc4ccc(C(F)(F)F)nc4)c3C[C@H]2CN1C(=O)c1ccccc1,"inconclusive: 14.1 µM [activator, partial curve]"
23,O=C(CCCCn1c(=O)[nH]c2ccccc2c1=O)N1CCN(c2cccc(C(F)(F)F)c2)CC1,inactive

row,SMILES,Potency
1,COCc1[nH]nc2c1C(c1ccc(OC)cc1)C(C#N)=C(N)O2 (stereo not drawn),inactive
2,O=C(Nc1nccs1)c1ccc(Br)s1,active: 11.2 µM
3,CCOc1ccc(S(=O)(=O)NCc2ccncc2)cc1,inactive
4,CCOC(=O)c1sc(NC(=O)c2ccc3nc[nH]c3c2)nc1C,"inconclusive: 14.1 µM [inhibitor, partial curve]"
5,COc1cccc(NC(=O)CN(c2ccc([N+](=O)[O-])cc2)S(=O)(=O)c2ccccc2)c1,"inconclusive: 8.91 µM [activator, partial curve]"
6,CSc1cccc(NS(=O)(=O)c2ccc(-c3coc(C)n3)cc2)c1,"inconclusive: 22.4 µM [activator, single point]"
7,COC(=O)c1ccc(-n2c(C)cc(-c3csc(NC(=O)c4ccc(S(=O)(=O)N(C)C)cc4)n3)c2C)cc1,inactive
8,COCCCN(C(=O)Cn1ncc2c(=O)oc3ccc(C)cc3c21)C(C)c1ccncc1 (stereo not drawn),"inconclusive: 15.8 µM [inhibitor, single point]"
9,COc1ccc(CNc2cc(C)nc3ncnn23)c(OC)c1,inactive
10,CC(=O)CCc1c[nH]c2c(C(=O)O)cccc12,"inconclusive: 11.2 µM [activator, partial curve]"
11,Cc1cccc(/C=N/NC(=O)c2cc(C)nc3ccccc23)n1,active: 11.2 µM
12,Cc1ccc(C)c(-n2nnnc2SCC(=O)c2ccc3c(c2)NC(=O)CO3)c1,"inconclusive: 20 µM [activator, single point]"
13,O=C(CCC(=O)N1CCOc2ccc(Cl)cc21)NCCCN1CCC(Cc2ccccc2)CC1,"inconclusive: 35.5 µM [inhibitor, single point]"
14,Cn1cc(CN2CCc3ccccc3C2)c2ccccc21,inactive
15,Nc1cccc(Oc2ccc([N+](=O)[O-])cc2)c1,"inconclusive: 7.08 µM [activator, full curve, poor fit]"
16,O=C(c1ccncc1)N1CCCC(N2CCN(c3ccc(F)cc3)CC2)C1 (stereo not drawn),"inconclusive: 15.8 µM [inhibitor, partial curve, poor fit]"
17,CCCCCC(=O)N1CCN(c2ccc(C(C)=O)cc2F)CC1,"inconclusive: 17.8 µM [activator, single point]"
18,NNC(=O)c1nc[nH]c1C(=O)Nc1ccccn1,"inconclusive: 14.1 µM [inhibitor, single point]"
19,CCOC(=O)C(N)CSC1CC(=O)N(CCc2ccccc2)C1=O (stereo not drawn),"inconclusive: 35.5 µM [inhibitor, single point]"
20,O=C(Nc1cccc(NC(=O)c2ccco2)c1)c1ccccc1,inactive
21,O=C(Nc1cccnc1)c1noc2c1CCCCC2,"inconclusive: 17.8 µM [inhibitor, single point]"
22,O=C(NCc1ccco1)c1ccc([N+](=O)[O-])o1,active: 5.01 µM
23,CCCOC(=O)N1CCN(/[N+]([O-])=N/Oc2ccc([N+](=O)[O-])cc2[N+](=O)[O-])CC1,"inconclusive: 14.1 µM [inhibitor, single point]"

row,SMILES,Potency
1,N/C(Cc1ccc(Cl)cc1)=N\OC(=O)c1cccc2ccccc12,"inconclusive: 11.2 µM [inhibitor, single point]"
2,O=c1c(CN2CCN(Cc3ccccc3)CC2)coc2ccc(Cl)cc12,"inconclusive: 15.8 µM [activator, partial curve, poor fit]"
3,COc1cc2c(cc1OC)C(c1ccc(Br)cc1)CC(=O)N2 (stereo not drawn),"inconclusive: 35.5 µM [activator, partial curve, poor fit]"
4,COc1cc(O)c(C)c(O)c1,inactive
5,CC(=O)c1ccc(OC(C)c2nc3ccccc3s2)cc1 (stereo not drawn),"inconclusive: 7.94 µM [activator, partial curve, poor fit]"
6,Cn1c(=O)c2c(nc(NCc3ccco3)n2CC(O)COc2ccccc2)n(C)c1=O (stereo not drawn),"inconclusive: 12.6 µM [activator, partial curve]"
7,Nc1nc(SCC(=O)Nc2ccc(OCc3ccccc3)cc2)n[nH]1,"inconclusive: 15.8 µM [activator, single point]"
8,NNC(=O)c1ccc(COc2ccc3ccccc3c2)cc1,inactive
9,CCOC(=O)Cc1c(C)nc2c(-c3ccc(Cl)cc3)cnn2c1C,"inconclusive: 11.2 µM [activator, partial curve, poor fit]"
10,C=C(C)c1cccc(C(C)(C)NC(=O)Nc2ccc(Cl)cn2)c1,"inconclusive: 11.2 µM [activator, partial curve]"
11,CC1=NN(c2ccc(C)cc2)C(=O)/C1=C/c1ccc(-c2cc([N+](=O)[O-])ccc2O)o1,"inconclusive: 3.16 µM [activator, single point]"
12,O=C(N/N=C/c1ccc(Br)o1)/C(=C/c1ccc([N+](=O)[O-])cc1)NC(=O)c1ccccc1,active: 10 µM
13,O=C(CCN1CCN(c2ccccc2)CC1)Nc1ccc(OCc2ccccc2)cc1,"inconclusive: 20 µM [inhibitor, single point]"
14,N#Cc1ccccc1CSc1ccc(-c2nc3ccccc3[nH]2)cn1,"inconclusive: 5.01 µM [activator, partial curve, poor fit]"
15,COC(=O)c1c(NC(=O)/C=C/C(=O)O)sc(C)c1-c1ccc(C)cc1,"inconclusive: 15.8 µM [inhibitor, single point]"
16,CN(C)Cc1c(C(=O)N/N=C/c2ccncc2)nnn1-c1nonc1N,inactive
17,CCc1nc(SCc2ccc(F)cc2)[nH]c(=O)c1C#N,"inconclusive: 14.1 µM [activator, single point]"
18,COc1ccc(-c2oc3cc(O)c(OC)c(O)c3c(=O)c2OC)cc1,"inconclusive: 22.4 µM [activator, single point]"
19,S=C(NCCSCc1ccccc1Cl)Nc1ccccc1,active: 2.82 µM
20,[O-][n+]1onc2c1CCC(=N/O)/C2=N\Nc1ccccc1,"inconclusive: 31.6 µM [inhibitor, single point]"
21,CCc1ccc(-c2nc(NC(=S)NC(=O)c3cccs3)sc2C)cc1,"inconclusive: 5.62 µM [inhibitor, partial curve, poor fit]"
22,COCCN1CC(=O)N2C(c3cccc(OC)c3)c3[nH]c4ccccc4c3C[C@H]2C1=O (stereo partly drawn),inactive

# Sorted by length of the SMILES (rising): part of the list above
row,SMILES,Potency
4,COc1cc(O)c(C)c(O)c1,inactive
17,CCc1nc(SCc2ccc(F)cc2)[nH]c(=O)c1C#N,"inconclusive: 14.1 µM [activator, single point]"
10,C=C(C)c1cccc(C(C)(C)NC(=O)Nc2ccc(Cl)cn2)c1,"inconclusive: 11.2 µM [activator, partial curve]"

# Taken from above.
# O=C(CCC(=O)N1CCOc2ccc(Cl)cc21)NCCCN1CCC(Cc2ccccc2)CC1 | Potency: inconclusive: 35.5 µM [inhibitor, single point]
# Cc1nc(NCCc2ccccc2)c2nnn(Cc3ccccc3Cl)c2n1 | Potency: inconclusive: 35.5 µM [inhibitor, single point]
